From article PMC8513237
Results are given in words; binding and its absence hold for the method and conditions named. In cells and extracts the contact can be indirect. Some entries that bind do so weakly or less than the wild type. Sequences can lack the tags named with a protein.

By UniProt entry, the sequences of proteins in these tests, tags left out.
UniProt P53396: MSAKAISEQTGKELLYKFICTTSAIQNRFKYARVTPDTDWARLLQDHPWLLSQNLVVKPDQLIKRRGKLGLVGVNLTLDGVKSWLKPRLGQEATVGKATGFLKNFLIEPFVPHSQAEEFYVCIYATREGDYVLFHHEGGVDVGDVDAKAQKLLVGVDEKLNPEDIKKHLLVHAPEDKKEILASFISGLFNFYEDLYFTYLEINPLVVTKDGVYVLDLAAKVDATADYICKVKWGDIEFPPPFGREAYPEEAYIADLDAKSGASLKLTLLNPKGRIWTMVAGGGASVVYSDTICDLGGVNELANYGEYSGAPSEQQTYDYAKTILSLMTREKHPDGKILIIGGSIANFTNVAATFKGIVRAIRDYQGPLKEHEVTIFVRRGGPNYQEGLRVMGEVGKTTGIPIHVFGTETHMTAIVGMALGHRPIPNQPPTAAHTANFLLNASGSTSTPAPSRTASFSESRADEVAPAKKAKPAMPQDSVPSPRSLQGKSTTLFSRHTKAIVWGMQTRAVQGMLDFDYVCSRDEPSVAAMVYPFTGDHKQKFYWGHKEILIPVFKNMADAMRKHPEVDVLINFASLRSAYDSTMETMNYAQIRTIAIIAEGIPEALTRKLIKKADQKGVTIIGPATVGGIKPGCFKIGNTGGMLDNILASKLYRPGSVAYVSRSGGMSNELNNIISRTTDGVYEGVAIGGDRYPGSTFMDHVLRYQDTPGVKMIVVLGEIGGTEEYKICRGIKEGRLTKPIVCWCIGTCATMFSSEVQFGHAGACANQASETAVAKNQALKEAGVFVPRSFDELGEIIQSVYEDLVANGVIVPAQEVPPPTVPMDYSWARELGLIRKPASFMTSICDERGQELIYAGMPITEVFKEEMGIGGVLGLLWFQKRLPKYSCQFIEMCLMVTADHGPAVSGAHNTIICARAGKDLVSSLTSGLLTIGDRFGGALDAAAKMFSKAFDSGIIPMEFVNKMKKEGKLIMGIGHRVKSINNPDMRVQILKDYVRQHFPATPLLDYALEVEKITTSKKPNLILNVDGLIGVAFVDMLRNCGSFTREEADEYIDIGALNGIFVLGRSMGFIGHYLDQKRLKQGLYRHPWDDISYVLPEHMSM
UniProt P12004: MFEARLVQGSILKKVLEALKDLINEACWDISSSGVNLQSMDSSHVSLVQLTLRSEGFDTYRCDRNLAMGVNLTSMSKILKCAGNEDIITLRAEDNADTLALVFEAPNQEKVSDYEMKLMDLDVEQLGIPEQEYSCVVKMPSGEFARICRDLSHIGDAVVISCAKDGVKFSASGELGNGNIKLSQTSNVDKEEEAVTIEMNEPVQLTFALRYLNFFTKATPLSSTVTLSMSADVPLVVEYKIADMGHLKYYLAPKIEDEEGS

Biological target: T1, 3 × Flag-FBXO43 (F-box only protein 43) (UniProt Q4G163)
T1 sequence: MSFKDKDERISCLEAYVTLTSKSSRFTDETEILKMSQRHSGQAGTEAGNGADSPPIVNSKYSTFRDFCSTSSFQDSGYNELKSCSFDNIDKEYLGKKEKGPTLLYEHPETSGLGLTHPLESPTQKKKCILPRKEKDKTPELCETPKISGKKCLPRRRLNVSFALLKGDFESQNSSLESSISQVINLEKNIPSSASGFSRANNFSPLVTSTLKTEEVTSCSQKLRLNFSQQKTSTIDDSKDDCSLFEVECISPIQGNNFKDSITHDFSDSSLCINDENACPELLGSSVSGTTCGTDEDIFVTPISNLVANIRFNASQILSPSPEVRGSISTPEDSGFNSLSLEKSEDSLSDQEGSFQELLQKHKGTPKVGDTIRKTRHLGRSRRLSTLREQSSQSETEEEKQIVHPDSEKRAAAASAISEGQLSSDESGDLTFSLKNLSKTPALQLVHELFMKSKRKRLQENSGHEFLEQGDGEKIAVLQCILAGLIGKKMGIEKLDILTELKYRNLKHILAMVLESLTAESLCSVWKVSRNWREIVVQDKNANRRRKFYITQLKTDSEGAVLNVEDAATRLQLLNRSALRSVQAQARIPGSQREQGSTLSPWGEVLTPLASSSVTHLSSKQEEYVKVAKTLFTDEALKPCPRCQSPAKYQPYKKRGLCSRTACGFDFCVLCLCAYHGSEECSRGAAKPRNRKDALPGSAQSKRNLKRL
Test: co-IP; lysate (IP buffer) of MDA-MB-231 cells overexpressing 3 × Flag-FBXO43 incubated with Flag beads for 24 h, washed with TBS, eluted with 3 × Flag peptide at 4 °C, western blot

binding | Substance
binds | ACLY (from UniProt P53396 1-1101)
binds | VCP (from UniProt P55072 1-806)
binds | PCNA (from UniProt P12004 1-261)
